Assay results from patent publication US20150164910A1, “ANTIVIRAL COMPOUNDS AND METHODS OF USE” (The Regents of the University of Califonia, priority 2012, published 2015).
At least one compound was matched to its structure with a doubt left.

Test system: CVB3
Experiment: Time of addition experiment, CVB3 in HeLa cells
Type: cell-based, coxsackievirus B3
Conditions: virus produced six hours after infection (FIG. 7)

Cl.OC(c1cc(C(F)(F)F)nc2c(C(F)(F)F)cccc12)C1CCCCN1 (stereo not shown) [Compound 22, [2,8-Bis (trifluoromethyl)-4-quinolinyl](2-piperidinyl)methanol hydrochloride (1:1), reference compound]
activity when added 2 hours after infection begins: equivalently active
